Values from PubChem BioAssay AID1671195 (Yale University, 2021)
Purpose: 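Genes whose knockdown alters LDL uptake in liver cancer cells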 (primary screen). Cell system: human Huh7 hepatoma cells. Knock-down reagent: siRNA pool against human genes, 18 nM. Timing: about 2 to 2.5 days of knockdown, then 8 h LDL uptake. Treatment: DiI-labelled LDL at 30 µg/ml for 8 h, in lipoprotein-deficient serum medium. Detection: 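Fluorescent LDL signal imaged in cells, scaled to the plate median, robust z-score for each replicate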. Scale: robust z-score: higher = more LDL uptake after knockdown. Call rule: 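a gene counts as active if at least two replicate z-scores exceed ±2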.
In all, the deposit lists about 22,000 reagents; this is a part drawn at random. About 1,510 of them (6.9%) count as active. 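Active includes knockdowns raising or lowering LDL uptake; positive z-scores mean more uptake, negative mean less.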 A number with no mark means an inactive call.

Silencing of LOC391661 (retired record) resulted in: robust z-score, replicate 1 = -1.01; robust z-score, replicate 2 = -1.38; robust z-score, replicate 3 = -1.48.
Depletion of CDA came out at: robust z-score, replicate 1 = -0.247; robust z-score, replicate 2 = 0.205; robust z-score, replicate 3 = -0.422.
ERAP1 scored robust z-score, replicate 1 = -2.01; robust z-score, replicate 2 = -1.06; robust z-score, replicate 3 = -0.971.
Against TEX19, the entry reads robust z-score, replicate 1 = 2.77 (active); robust z-score, replicate 2 = 2.73; robust z-score, replicate 3 = 1.79.
Depletion of KLF9 gave: robust z-score, replicate 1 = -0.93; robust z-score, replicate 2 = -0.705; robust z-score, replicate 3 = -0.734.
With knock-down of ZKSCAN5, the screen gave robust z-score, replicate 1 = 0.987; robust z-score, replicate 2 = 1.35; robust z-score, replicate 3 = 1.26.
ZNF569 scored robust z-score, replicate 1 = -1.25; robust z-score, replicate 2 = -1.17; robust z-score, replicate 3 = -1.77.

In a second layout: entries from further up.
| target | robust z-score, replicate 1 | robust z-score, replicate 2 | robust z-score, replicate 3 |
| --- | --- | --- | --- |
| CDA | -0.247 | 0.205 | -0.422 |
| ERAP1 | -2.01 | -1.06 | -0.971 |

Further results follow.
Against PIN4, the entry reads robust z-score, replicate 1 = -0.51; robust z-score, replicate 2 = -0.74; robust z-score, replicate 3 = -0.479.
For GZMH the deposit lists robust z-score, replicate 1 = 0.066; robust z-score, replicate 2 = 0.237; robust z-score, replicate 3 = -0.185.
HLA-DOA showed robust z-score, replicate 1 = -0.227; robust z-score, replicate 2 = 0.128; robust z-score, replicate 3 = 0.427.
For SLC5A10, the values are robust z-score, replicate 1 = -0.867; robust z-score, replicate 2 = -1.21; robust z-score, replicate 3 = -0.862.
DHTKD1 scored robust z-score, replicate 1 = -1.74; robust z-score, replicate 2 = -1.89; robust z-score, replicate 3 = -2.1.
SLC33A2 scored robust z-score, replicate 1 = 0.517; robust z-score, replicate 2 = 0.642; robust z-score, replicate 3 = 1.07.
After knock-down of KRT222, the record shows robust z-score, replicate 1 = 0.6; robust z-score, replicate 2 = 0.209; robust z-score, replicate 3 = 0.308.
Depletion of ADAMTS18 gave: robust z-score, replicate 1 = 2.14 (active); robust z-score, replicate 2 = 2.35; robust z-score, replicate 3 = 1.6.
For B4GALT6, the entry reads robust z-score, replicate 1 = 1.29; robust z-score, replicate 2 = 2.98; robust z-score, replicate 3 = 1.25.
